Reference: US20240368212A1, “SELECTIVE ISONITRILE INHIBITORS OF CYTOCHROME P450 SUBTYPES” (priority 2021, published 2024)
Some results were stated once for a whole list of compounds, not compound by compound.

Target: T1, CYP17A1 (Homo sapiens, UniProt P05093)
T1 sequence (P05093 1-508): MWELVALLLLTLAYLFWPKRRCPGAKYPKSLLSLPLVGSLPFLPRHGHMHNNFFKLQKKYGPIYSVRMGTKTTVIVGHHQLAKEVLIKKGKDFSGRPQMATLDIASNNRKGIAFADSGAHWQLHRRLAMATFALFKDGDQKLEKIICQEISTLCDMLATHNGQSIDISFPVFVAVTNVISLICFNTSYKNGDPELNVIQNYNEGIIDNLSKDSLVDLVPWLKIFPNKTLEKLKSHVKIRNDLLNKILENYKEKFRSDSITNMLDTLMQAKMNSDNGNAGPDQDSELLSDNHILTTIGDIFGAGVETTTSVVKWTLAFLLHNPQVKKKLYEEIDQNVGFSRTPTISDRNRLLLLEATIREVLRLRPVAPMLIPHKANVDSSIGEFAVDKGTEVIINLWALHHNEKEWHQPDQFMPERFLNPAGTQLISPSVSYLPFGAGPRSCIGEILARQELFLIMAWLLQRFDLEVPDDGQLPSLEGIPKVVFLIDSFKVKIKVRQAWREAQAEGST
Experiment: Ligand binding assay, UV-visible difference spectra titration
Settings: result in words; listed as compound 16
Experimental: Ligand binding assays. (Adapted from DeVore, N M, et al. (2009). Drug Metabolism and Disposition, 37(6), 1319-1327.) Ligand interaction with the heme iron was evaluated by titrating ligands into a cuvette containing purified CYP17A1, CYP2D6, or CYP3A4 and measured using a UV-visible scanning spectrophotometer. […] Ligands dissolved in DMSO were added to the sample cuvette and an equal volume of DMSO to the reference cuvette. Difference spectra were recorded from 300-500 nm after equilibration of enzyme and ligand. Binding to the enzyme was measured as the difference in maximal and minimal absorbance: A387-A419 for pregnanolone and 3-formyl pregnanolone, and A435-A393 for 3-formyl pregnanolone-20-isonitrile with CYP17A1; A434-A414 for 3-formyl pregnanolone-20-isonitrile with CYP3A4 and CYP2D6. […] All data fitting was accomplished using GraphPad Prism 9.

SMILES: [C-]#[N+][C@H](C)[C@H]1CC[C@H]2[C@@H]3CC[C@H]4C[C@@H](OC=O)CC[C@]4(C)[C@H]3CC[C@]12C [Compound 16]
- spectroscopic evidence of binding to CYP17A1 (heme spectral shift): only compound 16 induced the expected heme spectral shift
